Test results: the supplement of paper PMC10849652
The other results are listed elsewhere or left out. Residues, ends and D or L forms follow the SMILES beside them. *: point of attachment. Cbz = O=C(OCc1ccccc1)*

By UniProt entry, the sequences of proteins in these tests, tags left out. Where a name states a change or a piece, a line headed by the entry shows the natural chain unless it says otherwise.
UniProt Q9Y6K5: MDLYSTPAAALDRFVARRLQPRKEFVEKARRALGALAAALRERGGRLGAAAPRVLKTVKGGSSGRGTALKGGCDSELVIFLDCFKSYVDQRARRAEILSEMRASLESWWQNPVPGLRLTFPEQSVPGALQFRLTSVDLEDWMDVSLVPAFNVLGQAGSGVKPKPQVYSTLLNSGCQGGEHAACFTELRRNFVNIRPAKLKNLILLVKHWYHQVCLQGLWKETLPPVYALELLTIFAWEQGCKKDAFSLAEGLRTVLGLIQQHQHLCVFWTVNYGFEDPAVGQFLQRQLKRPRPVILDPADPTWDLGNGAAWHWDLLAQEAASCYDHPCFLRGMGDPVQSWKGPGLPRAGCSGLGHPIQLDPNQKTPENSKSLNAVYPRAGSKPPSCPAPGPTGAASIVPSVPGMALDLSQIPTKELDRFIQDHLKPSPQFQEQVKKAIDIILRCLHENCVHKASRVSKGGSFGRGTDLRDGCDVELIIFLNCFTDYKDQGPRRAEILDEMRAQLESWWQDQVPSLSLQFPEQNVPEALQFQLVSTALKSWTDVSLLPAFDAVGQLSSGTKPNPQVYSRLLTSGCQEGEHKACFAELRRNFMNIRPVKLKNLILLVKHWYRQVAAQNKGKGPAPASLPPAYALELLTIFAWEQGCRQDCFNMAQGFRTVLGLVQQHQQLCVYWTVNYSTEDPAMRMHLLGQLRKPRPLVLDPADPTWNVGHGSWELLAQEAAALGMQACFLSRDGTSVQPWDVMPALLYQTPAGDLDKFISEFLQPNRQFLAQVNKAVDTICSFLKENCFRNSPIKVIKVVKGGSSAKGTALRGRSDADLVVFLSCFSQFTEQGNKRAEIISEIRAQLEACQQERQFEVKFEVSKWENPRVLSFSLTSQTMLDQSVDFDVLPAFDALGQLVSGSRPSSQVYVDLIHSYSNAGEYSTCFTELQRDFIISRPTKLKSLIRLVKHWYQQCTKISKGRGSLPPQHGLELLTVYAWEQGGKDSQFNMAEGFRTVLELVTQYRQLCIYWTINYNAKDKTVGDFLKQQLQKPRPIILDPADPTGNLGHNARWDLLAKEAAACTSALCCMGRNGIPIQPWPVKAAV
UniProt Q9UBD5: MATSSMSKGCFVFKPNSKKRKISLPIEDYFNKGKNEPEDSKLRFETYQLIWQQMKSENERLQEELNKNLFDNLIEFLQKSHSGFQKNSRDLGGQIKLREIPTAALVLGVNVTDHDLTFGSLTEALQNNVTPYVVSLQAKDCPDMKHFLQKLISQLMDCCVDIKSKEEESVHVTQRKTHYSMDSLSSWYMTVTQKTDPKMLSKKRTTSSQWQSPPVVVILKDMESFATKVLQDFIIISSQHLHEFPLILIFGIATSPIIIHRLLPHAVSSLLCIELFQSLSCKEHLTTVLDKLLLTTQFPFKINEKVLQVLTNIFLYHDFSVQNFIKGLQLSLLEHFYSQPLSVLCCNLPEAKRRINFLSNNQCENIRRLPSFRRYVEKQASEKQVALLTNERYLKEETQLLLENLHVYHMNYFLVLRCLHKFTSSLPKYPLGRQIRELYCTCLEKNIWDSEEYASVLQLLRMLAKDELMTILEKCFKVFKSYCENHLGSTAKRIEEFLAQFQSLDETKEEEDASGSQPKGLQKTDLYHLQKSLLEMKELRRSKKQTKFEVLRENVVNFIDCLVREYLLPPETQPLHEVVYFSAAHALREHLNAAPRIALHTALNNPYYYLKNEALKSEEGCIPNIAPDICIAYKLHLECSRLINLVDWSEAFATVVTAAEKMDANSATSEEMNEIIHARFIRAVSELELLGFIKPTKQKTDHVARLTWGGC
UniProt Q9H6K4: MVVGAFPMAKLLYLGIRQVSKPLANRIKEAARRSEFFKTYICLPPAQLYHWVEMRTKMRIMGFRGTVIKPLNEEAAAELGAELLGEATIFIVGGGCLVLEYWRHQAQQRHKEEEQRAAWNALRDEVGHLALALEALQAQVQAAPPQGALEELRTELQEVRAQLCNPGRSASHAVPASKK
UniProt Q9ULJ1: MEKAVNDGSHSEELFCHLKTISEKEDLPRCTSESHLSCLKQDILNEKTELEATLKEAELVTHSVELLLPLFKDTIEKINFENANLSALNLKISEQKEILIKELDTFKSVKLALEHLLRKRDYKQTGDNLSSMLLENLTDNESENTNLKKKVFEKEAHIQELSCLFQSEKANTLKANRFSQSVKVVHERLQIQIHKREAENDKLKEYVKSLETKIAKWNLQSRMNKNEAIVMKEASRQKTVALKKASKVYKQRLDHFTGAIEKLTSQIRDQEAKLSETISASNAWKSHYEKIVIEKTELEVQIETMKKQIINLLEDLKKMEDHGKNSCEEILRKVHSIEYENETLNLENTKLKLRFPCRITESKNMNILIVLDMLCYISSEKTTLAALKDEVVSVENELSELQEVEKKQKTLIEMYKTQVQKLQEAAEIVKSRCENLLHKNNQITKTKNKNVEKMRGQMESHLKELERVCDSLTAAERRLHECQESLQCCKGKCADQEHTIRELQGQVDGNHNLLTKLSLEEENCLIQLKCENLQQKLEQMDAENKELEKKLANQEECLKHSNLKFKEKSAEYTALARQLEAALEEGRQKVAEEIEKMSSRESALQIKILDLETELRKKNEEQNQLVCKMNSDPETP
UniProt Q99935: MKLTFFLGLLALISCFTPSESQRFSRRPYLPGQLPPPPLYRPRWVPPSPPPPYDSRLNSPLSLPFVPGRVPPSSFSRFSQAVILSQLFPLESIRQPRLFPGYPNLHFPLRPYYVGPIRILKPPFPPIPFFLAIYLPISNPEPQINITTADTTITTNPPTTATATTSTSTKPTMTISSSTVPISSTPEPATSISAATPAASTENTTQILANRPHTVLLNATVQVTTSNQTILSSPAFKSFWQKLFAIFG
UniProt O95848: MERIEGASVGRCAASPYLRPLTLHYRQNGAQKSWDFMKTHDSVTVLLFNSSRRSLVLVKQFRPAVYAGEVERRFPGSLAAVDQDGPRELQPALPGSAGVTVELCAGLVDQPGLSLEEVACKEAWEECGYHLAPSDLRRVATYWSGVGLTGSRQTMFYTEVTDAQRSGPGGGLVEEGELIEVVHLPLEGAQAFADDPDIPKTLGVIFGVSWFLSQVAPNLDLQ
UniProt Q9BRQ3: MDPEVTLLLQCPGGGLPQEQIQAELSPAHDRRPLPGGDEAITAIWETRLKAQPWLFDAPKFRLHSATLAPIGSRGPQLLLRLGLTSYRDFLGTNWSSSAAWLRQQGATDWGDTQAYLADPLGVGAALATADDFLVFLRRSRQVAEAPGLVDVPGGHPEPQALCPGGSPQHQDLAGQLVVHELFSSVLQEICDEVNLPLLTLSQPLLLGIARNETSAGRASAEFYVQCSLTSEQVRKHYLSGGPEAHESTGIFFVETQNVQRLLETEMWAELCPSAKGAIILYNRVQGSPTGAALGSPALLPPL
UniProt Q8WV22: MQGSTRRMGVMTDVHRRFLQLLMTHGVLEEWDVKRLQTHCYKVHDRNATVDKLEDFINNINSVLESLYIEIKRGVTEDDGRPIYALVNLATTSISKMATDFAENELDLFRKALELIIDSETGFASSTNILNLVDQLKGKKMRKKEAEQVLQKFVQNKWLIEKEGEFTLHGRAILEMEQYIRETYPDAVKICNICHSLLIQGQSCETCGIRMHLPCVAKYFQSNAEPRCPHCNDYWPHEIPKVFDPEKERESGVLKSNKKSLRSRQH
UniProt O15381: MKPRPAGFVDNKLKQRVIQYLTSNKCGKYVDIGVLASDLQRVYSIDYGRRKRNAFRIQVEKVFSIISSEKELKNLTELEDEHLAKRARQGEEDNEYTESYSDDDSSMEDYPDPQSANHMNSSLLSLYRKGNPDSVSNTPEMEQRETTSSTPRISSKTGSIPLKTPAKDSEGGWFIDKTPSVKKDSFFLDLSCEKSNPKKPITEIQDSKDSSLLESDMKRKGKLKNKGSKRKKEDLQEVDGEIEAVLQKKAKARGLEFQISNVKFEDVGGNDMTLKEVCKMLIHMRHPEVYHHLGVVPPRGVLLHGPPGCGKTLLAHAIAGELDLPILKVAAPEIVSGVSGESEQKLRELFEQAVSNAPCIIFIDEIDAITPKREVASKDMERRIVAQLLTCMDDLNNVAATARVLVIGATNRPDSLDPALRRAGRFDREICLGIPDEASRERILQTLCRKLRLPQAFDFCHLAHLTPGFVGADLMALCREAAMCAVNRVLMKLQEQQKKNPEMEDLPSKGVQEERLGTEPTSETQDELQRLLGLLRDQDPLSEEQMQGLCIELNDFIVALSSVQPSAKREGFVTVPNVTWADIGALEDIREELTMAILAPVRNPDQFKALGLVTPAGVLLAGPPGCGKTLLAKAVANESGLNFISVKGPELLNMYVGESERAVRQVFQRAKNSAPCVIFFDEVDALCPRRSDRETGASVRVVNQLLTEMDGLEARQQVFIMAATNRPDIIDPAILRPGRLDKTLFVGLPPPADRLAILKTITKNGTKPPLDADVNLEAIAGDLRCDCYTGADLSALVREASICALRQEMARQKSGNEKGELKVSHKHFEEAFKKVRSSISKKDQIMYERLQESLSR
UniProt Q8N573: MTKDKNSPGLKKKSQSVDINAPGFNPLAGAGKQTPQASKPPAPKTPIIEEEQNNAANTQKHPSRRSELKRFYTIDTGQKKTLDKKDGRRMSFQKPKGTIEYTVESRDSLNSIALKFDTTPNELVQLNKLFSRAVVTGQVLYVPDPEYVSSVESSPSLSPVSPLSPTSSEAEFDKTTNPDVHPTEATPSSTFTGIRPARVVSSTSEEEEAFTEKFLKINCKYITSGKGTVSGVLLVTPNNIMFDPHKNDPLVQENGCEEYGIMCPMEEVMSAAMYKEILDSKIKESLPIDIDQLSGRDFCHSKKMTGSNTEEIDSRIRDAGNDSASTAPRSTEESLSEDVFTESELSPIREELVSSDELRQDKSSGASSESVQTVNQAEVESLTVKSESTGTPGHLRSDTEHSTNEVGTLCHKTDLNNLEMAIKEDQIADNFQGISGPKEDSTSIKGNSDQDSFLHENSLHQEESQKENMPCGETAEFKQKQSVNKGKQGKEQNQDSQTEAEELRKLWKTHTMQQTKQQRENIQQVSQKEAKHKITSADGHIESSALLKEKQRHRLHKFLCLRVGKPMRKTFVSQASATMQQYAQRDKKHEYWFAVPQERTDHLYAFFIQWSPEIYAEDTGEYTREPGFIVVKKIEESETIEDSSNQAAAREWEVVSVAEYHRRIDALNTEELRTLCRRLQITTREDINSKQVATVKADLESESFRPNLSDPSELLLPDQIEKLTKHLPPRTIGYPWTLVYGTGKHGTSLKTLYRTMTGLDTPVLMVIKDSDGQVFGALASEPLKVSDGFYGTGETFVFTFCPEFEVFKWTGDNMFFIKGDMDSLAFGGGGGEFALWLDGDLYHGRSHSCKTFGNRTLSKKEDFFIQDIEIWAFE
UniProt P47900: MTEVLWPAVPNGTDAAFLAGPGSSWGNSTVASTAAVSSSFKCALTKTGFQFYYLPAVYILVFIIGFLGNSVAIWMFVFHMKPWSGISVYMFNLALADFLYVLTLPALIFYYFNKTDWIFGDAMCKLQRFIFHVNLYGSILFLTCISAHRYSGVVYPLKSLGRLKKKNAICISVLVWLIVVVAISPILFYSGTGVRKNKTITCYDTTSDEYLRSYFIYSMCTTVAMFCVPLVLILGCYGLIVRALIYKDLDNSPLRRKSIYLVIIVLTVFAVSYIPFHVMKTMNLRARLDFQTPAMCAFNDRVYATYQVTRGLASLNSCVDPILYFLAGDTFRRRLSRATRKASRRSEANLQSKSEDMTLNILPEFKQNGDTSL
UniProt Q9H4B0: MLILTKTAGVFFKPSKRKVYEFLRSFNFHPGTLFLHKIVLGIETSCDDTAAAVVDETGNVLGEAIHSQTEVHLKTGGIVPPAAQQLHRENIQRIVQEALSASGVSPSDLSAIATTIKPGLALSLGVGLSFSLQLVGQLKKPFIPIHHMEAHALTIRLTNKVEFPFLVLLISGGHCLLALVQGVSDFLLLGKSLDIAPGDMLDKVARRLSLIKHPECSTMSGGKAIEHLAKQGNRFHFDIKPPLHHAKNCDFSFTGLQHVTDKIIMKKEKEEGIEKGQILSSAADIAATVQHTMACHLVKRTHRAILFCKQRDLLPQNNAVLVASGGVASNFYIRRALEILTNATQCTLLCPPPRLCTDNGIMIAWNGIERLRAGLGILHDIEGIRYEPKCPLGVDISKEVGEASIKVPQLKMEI
UniProt P53370: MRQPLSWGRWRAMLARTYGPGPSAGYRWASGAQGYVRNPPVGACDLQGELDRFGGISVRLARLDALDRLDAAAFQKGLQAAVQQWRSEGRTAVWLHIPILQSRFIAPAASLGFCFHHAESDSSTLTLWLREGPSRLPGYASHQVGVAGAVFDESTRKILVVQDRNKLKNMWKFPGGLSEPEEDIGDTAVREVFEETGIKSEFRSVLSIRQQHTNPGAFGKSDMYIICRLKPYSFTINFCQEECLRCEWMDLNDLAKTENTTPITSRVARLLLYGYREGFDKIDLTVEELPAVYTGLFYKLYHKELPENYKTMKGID

Experiments:
Test in all cases: log2 fold change, soluble protein after heating vs DMSO (PISA); higher = thermal stabilisation; K562 cells, 10 uM, 30 min; active = over 0.2 and 3.5 SD of the protein, either way, in both replicates (recomputed)
IRAK-1-4 Inhibitor I = compound: C1COCCN1CCN2C3=CC=CC=C3N=C2NC(=O)C4=CC(=CC=C4)[N+](=O)[O-] [IRAK-1-4 Inhibitor I]
Procedure, shortened: (§1)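 Aliquots of K562 cells (2×10^6 cells/mL) treated with 10 μM compound for 30 min were heated for 3 min over 48°C-58°C. After pooling and extraction in PBS with 0.5% NP-40 at 4°C, soluble protein from a 21,000xg, 90 min spin was quantified by TMTpro 16plex LC-MS/MS with channel sums equalised. Thermal stability is expressed against control samples, from duplicates, as a log2 fold change.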

ibrutinib = compound: C=CC(=O)N1CCC[C@@H](n2nc(-c3ccc(Oc4ccccc4)cc3)c3c(N)ncnc32)C1 [ibrutinib]
Procedure, shortened: as §1

ralimetinib = compound: CC(C)(C)Cn1c(N)nc2ccc(-c3[nH]c(C(C)(C)C)nc3-c3ccc(F)cc3)nc21 [ralimetinib]
Procedure, shortened: as §1

[1] = compound: CC(C)C[C@@H](C=O)NC(=O)[C@H](CC(C)C)NC(=O)[C@H](CC(C)C)NC(=O)OCc1ccccc1
Procedure, shortened: as §1

pinometostat = compound: CC(C)N(C[C@H]1O[C@@H](n2cnc3c(N)ncnc32)[C@H](O)[C@@H]1O)[C@H]1C[C@@H](CCc2nc3cc(C(C)(C)C)ccc3[nH]2)C1 [pinometostat]
Procedure, shortened: as §1

[2] = compound: CC1=C(C=C(C=C1)NC(=O)C2=CC(=CC=C2)C(C)(C)C#N)NC3=CC4=C(C=C3)N=CN(C4=O)C
Procedure, shortened: as §1

[3] = compound: CC1=C(C=C(C=C1)NC(=O)C2=CC(=CC=C2)N(C)C)NC(=O)C3=CC=C(C=C3)O
Procedure, shortened: as §1

[4] = compound: CC1=NC(=CC=C1)C2=C(N=C(N2)C(C)(C)C)C3=CC4=NC=CN=C4C=C3
Procedure, shortened: as §1

barasertib = compound: CCN(CCCOc1ccc2c(Nc3cc(CC(=O)Nc4cccc(F)c4)[nH]n3)ncnc2c1)CCOP(=O)(O)O [barasertib]
Procedure, shortened: as §1

[5] = compound: CC(C)(O)CC(=O)NCCn1ccc2ncnc(Nc3ccc(Oc4cccc(C(F)(F)F)c4)c(Cl)c3)c21
Procedure, shortened: as §1

[6] = compound: CC(C)C1=C2N=C(C=C(N2N=C1)NCC3=CC=CC=C3)NCCCCCCN
Procedure, shortened: as §1

[7] = compound: CC1=C(C2=C(C=C1)C(=O)C3=CC=CC=C3N2CCCN)C
Procedure, shortened: as §1

Nexturastat A = compound: CCCCN(Cc1ccc(C(=O)NO)cc1)C(=O)Nc1ccccc1 [Nexturastat A]
Procedure, shortened: as §1

[8] = compound: CCCc1cc(C)[nH]c(=O)c1CNC(=O)c1cc(-c2ccnc(N3CCN(C)CC3)c2)cc2c1cnn2C(C)C
Procedure, shortened: as §1

givinostat = compound: CCN(CC)Cc1ccc2cc(COC(=O)Nc3ccc(C(=O)NO)cc3)ccc2c1 [givinostat]
Procedure, shortened: as §1

[9] = compound: CC1=CC=C(C=C1)SC2=C3C=C(SC3=CN=C2)C(=O)N
Procedure, shortened: as §1

[10] = compound: CCCS(=O)(=O)Nc1ccc(F)c(C(=O)c2c[nH]c3ncc(Cl)cc23)c1F
Procedure, shortened: as §1

[11] = compound: CC1=C(C(CC(=O)N1)C2=CC=C(C=C2)C(F)(F)F)C(=O)NC3=C(C=C4C(=C3)C=NN4)F
Procedure, shortened: as §1

[12] = compound: CC(=O)c1cnc2ccc(-c3cc(Cl)c(O)c(Cl)c3)nc2c1N[C@H]1CC[C@H](CN(C)C)CC1
Procedure, shortened: as §1

vemurafenib = compound: CCCS(=O)(=O)Nc1ccc(F)c(C(=O)c2c[nH]c3ncc(-c4ccc(Cl)cc4)cc23)c1F [vemurafenib]
Procedure, shortened: as §1

Measured: log2 fold change

OAS3 (UniProt Q9Y6K5)
inactive: IRAK-1-4 Inhibitor I 0.08 | ibrutinib 0.396 | ralimetinib -0.35 | [1] -0.503 | pinometostat -0.072 | [2] 0.124 | [3] -0.282 | [4] -0.272 | barasertib -0.061

ORMDL1 (UniProt Q9P0S3)
inactive: IRAK-1-4 Inhibitor I -0.19 | [5] -0.122 | [6] -0.137 | pinometostat 0.099 | [7] 0.106 | [2] 0.036 | [4] -0.127 | Nexturastat A -0.112 | [8] 0.06 | givinostat 0.062

PABPC1 (UniProt E5RJM8)
inactive: IRAK-1-4 Inhibitor I 0.074 | pinometostat -0.175 | [2] -0.089 | [9] -0.073 | [4] -0.35 | [10] -0.045

OGFOD3 (UniProt Q6PK18)
inactive: ibrutinib 0.035 | ralimetinib -0.227 | [1] 0.131 | [11] 0.014 | [3] -0.109 | [9] -0.033 | [10] 0.046 | [8] 0.091 | barasertib 0.079

ORC3 (UniProt Q9UBD5)
inactive: [12] -0.031

OXLD1 (UniProt Q5BKU9)
inactive: [11] 0.034 | [8] 0.051

ORMDL3 (UniProt Q8N138)
inactive: [6] -0.105 | [9] -0.133 | [10] 0.044 | givinostat 0

ODC1 (UniProt P11926)
inactive: IRAK-1-4 Inhibitor I -0.137 | [12] 0.093 | [6] -0.049 | pinometostat -0.058 | [11] 0.313 | [9] -0.021 | [4] 0.142 | [10] -0.031 | givinostat 0.061

OPA3 isoform 2 (UniProt Q9H6K4)
inactive: [12] 0.102 | ralimetinib 0.057 | [6] -0.083 | [1] 0.019 | [3] -0.052 | vemurafenib -0.132 | [8] -0.066 | givinostat -0.1

ODF2L isoform 4 (UniProt Q9ULJ1)
inactive: IRAK-1-4 Inhibitor I -0.126 | ibrutinib -0.006 | pinometostat -0.082 | [11] 0.01 | [4] 0.064 | vemurafenib -0.02 | [8] 0.123 | barasertib -0.065

OPRPN (UniProt Q99935)
inactive: [8] 0.301

NUDT14 (UniProt O95848)
inactive: [9] 0.035 | [10] 0.027

ORC6 (UniProt Q9Y5N6)
inactive: IRAK-1-4 Inhibitor I -0.039 | ralimetinib -0.023 | [5] -0.079 | [1] 0.063 | pinometostat -0.047 | [11] 0.039 | [2] -0.013 | [3] -0.068 | [9] -0.138 | [4] -0.043 | Nexturastat A -0.124 | [10] 0.099

NUDT22 (UniProt Q9BRQ3)
inactive: ibrutinib -0.2 | [12] -0.08 | vemurafenib 0.008 | [8] -0.128 | barasertib 0.322

NSMCE1 (UniProt Q8WV22)
inactive: IRAK-1-4 Inhibitor I 0.037 | [12] -0.067 | ralimetinib -0.081 | [5] 0.054 | [6] 0.066 | [1] 0.022 | pinometostat 0.003 | [11] -0.212 | [7] -0.239 | [2] -0.018 | [3] -0.108 | [9] -0.01 | [4] -0.029 | Nexturastat A 0.008 | vemurafenib 0.119 | [10] 0.012 | [8] 0.004 | givinostat -0.035

OSBPL6 isoform 5 (UniProt Q9BZF3)
inactive: IRAK-1-4 Inhibitor I -0.578 | [12] -0.466 | ralimetinib 0.313 | [5] 0 | [6] 0.545 | [1] -0.013 | pinometostat 0.43 | [11] -0.231 | [2] 0.025 | [3] -0.01 | [9] -0.481 | [4] -0.334 | Nexturastat A 0.314 | [10] -0.166 | [8] 0.362 | givinostat -0.114

NVL (UniProt O15381)
inactive: ibrutinib 0.05 | ralimetinib 0.058 | [1] 0.008 | [3] 0.001 | [8] 0.028 | barasertib 0.024

OXR1 isoform 2 (UniProt Q8N573)
inactive: IRAK-1-4 Inhibitor I -0.044 | [12] -0.123 | ralimetinib -0.088 | [5] -0.118 | [1] 0.119 | pinometostat 0.066 | [7] 0.031 | [3] -0.007 | [9] 0.008 | [4] -0.071 | Nexturastat A 0 | vemurafenib 0.126 | [10] 0.027

4 consecutive records out of the list so far, quoted:
ORMDL1 (UniProt Q9P0S3)
inactive: IRAK-1-4 Inhibitor I -0.19 | [5] -0.122 | [6] -0.137 | pinometostat 0.099 | [7] 0.106 | [2] 0.036 | [4] -0.127 | Nexturastat A -0.112 | [8] 0.06 | givinostat 0.062

PABPC1 (UniProt E5RJM8)
inactive: IRAK-1-4 Inhibitor I 0.074 | pinometostat -0.175 | [2] -0.089 | [9] -0.073 | [4] -0.35 | [10] -0.045

OGFOD3 (UniProt Q6PK18)
inactive: ibrutinib 0.035 | ralimetinib -0.227 | [1] 0.131 | [11] 0.014 | [3] -0.109 | [9] -0.033 | [10] 0.046 | [8] 0.091 | barasertib 0.079

ORC3 (UniProt Q9UBD5)
inactive: [12] -0.031

Further entries follow.

P3H3 (UniProt Q8IVL6)
inactive: [5] -0.022 | [7] -0.149 | Nexturastat A 0.162 | [8] 0.13

OSBPL11 (UniProt Q9BXB4)
inactive: [6] 0.13 | givinostat 0.013

P4HB (UniProt H7BZ94)
inactive: [2] -0.074

P2RY1 (UniProt P47900)
inactive: [12] 0.113 | [5] 0.121 | [6] 0.233 | [9] -0.122 | Nexturastat A 0.229 | [10] -0.06 | [8] 0.173 | givinostat -0.153

NUDT18 (UniProt Q6ZVK8)
inactive: IRAK-1-4 Inhibitor I 0.101 | [12] -0.134 | ralimetinib 0.031 | [5] -0.192 | [6] 0.111 | [1] 0.013 | pinometostat 0.134 | [11] 0.107 | [7] 0 | [2] 0.012 | [3] 0.011 | [9] -0.134 | [4] -0.028 | Nexturastat A -0.005 | vemurafenib -0.007 | [10] -0.052 | [8] -0.135 | givinostat -0.005

OSGEPL1 (UniProt Q9H4B0)
inactive: IRAK-1-4 Inhibitor I -0.045 | [12] 0.191 | [6] -0.074 | pinometostat 0.043 | [2] -0.21 | [9] -0.133 | [4] 0.071 | vemurafenib 0.113 | [10] -0.06 | givinostat -0.083

PABPC1 (UniProt H0YAR2)
inactive: IRAK-1-4 Inhibitor I 0.128 | ralimetinib -0.188 | [1] 0.121 | pinometostat 0.098 | [2] 0.075 | [3] -0.179 | [4] -0.138 | [8] -0.059

NUDT6 (UniProt P53370)
inactive: IRAK-1-4 Inhibitor I -0.143 | ralimetinib 0.183 | [5] -0.106 | [6] -0.033 | [1] 0.035 | pinometostat 0.071 | [7] 0.283 | [3] 0.049 | [9] 0.064 | [4] 0.075 | Nexturastat A -0.119 | vemurafenib 0.002 | [10] -0.037 | [8] -0.092 | givinostat -0.027
